From the supplement of paper PMC10849652
Some of the results follow.

Sequences of proteins named here, by UniProt entry; tags and fusion partners are left off. A change or cut given only in a name is not applied to a line headed by its entry.
UniProt P27449, whole entry, looked up: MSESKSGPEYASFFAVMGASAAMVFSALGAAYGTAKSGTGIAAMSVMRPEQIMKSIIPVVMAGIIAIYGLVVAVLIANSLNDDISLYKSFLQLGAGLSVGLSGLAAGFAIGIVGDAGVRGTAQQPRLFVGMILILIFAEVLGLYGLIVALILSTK
UniProt Q8WWM7: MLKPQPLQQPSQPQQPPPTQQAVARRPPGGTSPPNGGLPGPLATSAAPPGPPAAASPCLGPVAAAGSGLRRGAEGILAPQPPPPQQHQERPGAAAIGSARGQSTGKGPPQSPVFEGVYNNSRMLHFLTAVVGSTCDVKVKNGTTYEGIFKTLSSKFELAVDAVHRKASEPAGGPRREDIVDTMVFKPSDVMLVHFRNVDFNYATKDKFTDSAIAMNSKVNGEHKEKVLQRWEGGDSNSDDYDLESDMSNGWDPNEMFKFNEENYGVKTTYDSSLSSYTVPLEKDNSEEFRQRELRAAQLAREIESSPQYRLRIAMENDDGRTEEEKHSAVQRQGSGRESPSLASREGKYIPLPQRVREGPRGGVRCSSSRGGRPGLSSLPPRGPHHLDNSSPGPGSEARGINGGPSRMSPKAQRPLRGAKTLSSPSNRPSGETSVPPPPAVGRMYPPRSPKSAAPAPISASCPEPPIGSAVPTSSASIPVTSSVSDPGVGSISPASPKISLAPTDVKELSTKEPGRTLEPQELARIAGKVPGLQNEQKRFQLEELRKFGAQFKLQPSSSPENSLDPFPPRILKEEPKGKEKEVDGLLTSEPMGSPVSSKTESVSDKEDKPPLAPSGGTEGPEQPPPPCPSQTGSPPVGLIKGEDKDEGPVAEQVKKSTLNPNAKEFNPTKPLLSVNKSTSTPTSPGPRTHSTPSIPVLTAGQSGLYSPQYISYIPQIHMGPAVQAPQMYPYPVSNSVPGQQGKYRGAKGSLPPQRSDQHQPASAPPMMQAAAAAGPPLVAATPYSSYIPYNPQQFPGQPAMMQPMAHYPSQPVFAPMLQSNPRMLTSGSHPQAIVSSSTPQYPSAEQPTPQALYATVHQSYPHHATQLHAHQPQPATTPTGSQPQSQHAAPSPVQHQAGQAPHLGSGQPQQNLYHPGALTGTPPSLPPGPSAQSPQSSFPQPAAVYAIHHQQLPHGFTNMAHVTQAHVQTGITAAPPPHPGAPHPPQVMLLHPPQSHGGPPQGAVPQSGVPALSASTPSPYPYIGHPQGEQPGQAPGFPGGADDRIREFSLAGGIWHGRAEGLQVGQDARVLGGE
UniProt H3BUF6: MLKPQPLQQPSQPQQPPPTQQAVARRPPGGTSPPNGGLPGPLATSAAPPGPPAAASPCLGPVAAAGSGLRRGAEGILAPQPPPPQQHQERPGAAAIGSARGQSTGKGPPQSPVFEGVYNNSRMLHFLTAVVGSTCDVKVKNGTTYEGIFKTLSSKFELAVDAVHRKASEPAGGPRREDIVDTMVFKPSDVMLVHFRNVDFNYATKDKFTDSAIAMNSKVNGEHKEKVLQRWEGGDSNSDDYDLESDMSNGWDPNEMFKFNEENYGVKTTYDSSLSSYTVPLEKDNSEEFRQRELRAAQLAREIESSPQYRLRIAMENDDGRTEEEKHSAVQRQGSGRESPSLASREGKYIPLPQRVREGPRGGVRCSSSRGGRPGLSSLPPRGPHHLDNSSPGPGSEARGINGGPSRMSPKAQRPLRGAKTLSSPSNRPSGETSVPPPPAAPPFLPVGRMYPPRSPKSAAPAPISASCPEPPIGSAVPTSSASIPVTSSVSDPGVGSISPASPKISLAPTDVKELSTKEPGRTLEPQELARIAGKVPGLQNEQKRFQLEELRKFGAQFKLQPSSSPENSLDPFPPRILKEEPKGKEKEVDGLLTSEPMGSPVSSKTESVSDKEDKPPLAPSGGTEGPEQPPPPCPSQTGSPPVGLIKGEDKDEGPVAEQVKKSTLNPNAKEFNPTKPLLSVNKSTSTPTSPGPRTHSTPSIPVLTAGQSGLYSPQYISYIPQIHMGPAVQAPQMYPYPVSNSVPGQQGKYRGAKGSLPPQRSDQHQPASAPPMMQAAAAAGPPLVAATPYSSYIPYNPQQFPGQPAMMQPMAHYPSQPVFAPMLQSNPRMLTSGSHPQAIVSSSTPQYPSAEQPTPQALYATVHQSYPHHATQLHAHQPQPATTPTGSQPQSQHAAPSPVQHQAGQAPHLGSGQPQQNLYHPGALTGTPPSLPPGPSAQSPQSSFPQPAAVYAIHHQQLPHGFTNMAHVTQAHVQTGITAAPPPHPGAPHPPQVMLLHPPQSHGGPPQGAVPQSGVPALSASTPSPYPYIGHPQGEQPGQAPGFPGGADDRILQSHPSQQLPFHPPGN
UniProt O15169, whole entry, looked up: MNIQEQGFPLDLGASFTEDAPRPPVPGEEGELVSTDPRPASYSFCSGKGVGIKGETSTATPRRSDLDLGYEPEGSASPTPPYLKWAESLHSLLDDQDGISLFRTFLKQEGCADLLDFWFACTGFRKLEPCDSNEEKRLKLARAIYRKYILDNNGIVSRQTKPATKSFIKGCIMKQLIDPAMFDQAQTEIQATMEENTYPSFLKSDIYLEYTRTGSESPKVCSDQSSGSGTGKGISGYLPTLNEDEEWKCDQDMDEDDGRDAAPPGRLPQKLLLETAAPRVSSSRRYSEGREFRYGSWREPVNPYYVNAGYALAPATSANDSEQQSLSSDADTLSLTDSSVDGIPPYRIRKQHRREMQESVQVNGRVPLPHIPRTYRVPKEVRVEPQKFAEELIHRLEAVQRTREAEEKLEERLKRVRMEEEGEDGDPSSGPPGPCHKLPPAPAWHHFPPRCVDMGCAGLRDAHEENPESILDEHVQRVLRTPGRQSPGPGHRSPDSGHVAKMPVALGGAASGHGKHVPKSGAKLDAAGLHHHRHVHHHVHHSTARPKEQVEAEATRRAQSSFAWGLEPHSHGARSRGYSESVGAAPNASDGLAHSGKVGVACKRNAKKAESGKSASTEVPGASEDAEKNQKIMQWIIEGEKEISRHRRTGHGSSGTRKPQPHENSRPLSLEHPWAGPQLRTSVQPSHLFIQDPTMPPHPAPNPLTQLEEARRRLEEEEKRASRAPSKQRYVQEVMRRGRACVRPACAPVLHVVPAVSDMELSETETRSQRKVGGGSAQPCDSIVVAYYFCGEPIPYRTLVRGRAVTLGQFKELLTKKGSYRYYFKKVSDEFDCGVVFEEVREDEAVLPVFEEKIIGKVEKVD
UniProt P18847: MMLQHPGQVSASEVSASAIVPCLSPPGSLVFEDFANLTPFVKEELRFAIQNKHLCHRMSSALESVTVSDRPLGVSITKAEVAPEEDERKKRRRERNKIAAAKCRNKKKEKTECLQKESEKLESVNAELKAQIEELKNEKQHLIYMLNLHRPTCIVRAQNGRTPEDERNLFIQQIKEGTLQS
UniProt P25705: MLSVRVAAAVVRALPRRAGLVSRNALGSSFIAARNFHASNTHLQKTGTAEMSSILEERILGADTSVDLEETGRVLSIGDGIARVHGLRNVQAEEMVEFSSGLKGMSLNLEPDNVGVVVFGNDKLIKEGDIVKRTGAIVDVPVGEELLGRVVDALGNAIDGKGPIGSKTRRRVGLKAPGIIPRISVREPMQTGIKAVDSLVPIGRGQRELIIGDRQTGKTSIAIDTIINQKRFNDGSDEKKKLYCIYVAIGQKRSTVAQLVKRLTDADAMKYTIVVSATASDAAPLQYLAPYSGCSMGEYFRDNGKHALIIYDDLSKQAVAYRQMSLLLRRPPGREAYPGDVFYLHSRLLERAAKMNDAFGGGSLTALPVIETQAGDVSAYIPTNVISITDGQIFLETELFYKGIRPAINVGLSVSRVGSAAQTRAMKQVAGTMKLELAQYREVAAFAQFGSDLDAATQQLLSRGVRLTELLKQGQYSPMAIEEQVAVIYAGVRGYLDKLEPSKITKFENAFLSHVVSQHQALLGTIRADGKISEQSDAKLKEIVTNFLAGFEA
UniProt Q9H1I8: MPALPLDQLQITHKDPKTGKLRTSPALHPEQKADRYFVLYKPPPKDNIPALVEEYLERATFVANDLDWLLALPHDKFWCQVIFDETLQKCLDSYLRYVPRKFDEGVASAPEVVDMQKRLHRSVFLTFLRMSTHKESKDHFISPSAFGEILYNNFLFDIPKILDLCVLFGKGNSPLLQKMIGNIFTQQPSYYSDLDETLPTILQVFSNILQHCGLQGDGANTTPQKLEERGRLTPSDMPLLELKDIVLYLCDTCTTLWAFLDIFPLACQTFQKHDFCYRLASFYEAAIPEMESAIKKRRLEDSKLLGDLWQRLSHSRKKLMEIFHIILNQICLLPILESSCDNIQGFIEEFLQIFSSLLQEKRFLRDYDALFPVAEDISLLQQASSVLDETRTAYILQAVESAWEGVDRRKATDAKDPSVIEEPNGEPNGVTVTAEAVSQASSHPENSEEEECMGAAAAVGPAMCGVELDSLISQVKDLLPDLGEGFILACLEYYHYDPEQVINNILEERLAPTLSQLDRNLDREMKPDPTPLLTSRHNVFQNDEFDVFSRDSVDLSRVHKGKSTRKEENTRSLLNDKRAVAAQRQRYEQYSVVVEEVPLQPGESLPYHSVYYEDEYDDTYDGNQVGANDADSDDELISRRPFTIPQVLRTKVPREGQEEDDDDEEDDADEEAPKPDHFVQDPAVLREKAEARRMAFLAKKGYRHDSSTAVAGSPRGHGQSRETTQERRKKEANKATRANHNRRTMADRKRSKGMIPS
UniProt P04424, whole entry, looked up: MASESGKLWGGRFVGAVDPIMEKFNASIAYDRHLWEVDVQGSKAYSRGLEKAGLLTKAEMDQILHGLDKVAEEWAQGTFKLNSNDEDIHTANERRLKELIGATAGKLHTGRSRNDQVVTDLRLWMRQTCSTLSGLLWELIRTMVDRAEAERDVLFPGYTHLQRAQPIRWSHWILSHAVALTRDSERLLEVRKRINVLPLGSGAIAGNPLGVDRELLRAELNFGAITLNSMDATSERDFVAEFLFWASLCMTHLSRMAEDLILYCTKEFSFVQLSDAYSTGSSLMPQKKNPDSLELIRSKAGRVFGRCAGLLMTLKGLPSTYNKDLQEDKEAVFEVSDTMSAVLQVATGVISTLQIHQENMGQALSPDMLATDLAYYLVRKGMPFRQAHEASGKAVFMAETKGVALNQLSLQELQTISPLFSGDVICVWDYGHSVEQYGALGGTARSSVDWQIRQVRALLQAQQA
UniProt Q8NHH9: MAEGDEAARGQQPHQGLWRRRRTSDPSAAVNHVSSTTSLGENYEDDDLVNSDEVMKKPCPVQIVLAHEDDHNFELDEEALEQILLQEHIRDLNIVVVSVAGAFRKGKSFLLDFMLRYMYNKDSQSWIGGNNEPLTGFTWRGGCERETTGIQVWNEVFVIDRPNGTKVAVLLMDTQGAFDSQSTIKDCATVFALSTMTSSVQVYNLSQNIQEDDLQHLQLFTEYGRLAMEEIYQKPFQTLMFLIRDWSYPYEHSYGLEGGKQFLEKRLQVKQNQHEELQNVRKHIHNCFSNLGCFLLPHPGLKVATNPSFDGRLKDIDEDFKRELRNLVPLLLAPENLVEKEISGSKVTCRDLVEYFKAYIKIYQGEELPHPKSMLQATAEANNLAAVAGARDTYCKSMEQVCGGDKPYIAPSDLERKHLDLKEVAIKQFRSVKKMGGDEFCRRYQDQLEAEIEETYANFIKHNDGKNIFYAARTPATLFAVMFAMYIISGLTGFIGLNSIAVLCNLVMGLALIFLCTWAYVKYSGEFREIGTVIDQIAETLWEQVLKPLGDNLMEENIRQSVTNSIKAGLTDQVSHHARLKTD
UniProt O95260: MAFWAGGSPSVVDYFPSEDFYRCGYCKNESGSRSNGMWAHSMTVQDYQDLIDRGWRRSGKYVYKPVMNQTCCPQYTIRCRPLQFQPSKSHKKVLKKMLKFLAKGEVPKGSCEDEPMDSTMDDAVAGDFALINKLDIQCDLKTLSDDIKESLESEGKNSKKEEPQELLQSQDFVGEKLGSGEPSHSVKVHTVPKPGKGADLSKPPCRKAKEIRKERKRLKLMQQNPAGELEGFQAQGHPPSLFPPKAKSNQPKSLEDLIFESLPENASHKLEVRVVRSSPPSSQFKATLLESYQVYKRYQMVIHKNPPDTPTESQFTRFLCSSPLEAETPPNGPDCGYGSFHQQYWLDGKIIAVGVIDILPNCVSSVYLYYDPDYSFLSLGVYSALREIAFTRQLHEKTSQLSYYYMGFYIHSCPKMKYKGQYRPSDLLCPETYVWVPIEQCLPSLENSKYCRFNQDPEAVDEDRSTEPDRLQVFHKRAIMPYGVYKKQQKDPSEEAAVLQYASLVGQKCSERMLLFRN
UniProt O43681: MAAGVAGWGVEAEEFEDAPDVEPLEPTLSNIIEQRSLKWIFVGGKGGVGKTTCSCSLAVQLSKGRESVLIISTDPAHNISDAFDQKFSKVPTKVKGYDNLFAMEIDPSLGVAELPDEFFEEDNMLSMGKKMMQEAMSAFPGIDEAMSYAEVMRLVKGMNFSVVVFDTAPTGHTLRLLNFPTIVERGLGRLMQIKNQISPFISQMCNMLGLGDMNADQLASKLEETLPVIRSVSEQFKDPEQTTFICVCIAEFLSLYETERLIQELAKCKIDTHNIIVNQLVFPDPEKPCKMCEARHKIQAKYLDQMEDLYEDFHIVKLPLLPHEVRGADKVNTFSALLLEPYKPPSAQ

compound: COC(=O)[C@H](CCSC)NC(=O)C1=C(C=C(C=C1)NC[C@H](CS)N)C2=CC=CC=C2; test: log2 fold change, soluble protein after heating vs DMSO (PISA); higher = thermal stabilisation; K562 lysate, 10 uM; active = over 0.2 and 3.5 SD of the protein, either way, in both replicates (recomputed)
Procedure, shortened: (§1)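 Values give the log-two fold change in thermal stability against solvent controls, from duplicates. Crude K562 extract at 1 mg/mL protein, made by dounce homogenisation in PBS pH 7.4 with 1 mM MgCl2, was treated with 10 μM compound for 30 min. After 3 min heating across 48°C-58°C, aliquots were pooled, adjusted to 0.5% NP-40 at 4°C and centrifuged at 21,000xg for 90 min. The supernatant was measured by TMTpro 16plex LC-MS/MS with channel sums equalised.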

log2 fold change, inactive:
ATP6V0C (UniProt P27449) -0.127, ATXN1L (UniProt P0C7T5) 0.081, ATP7B (UniProt P35670) -0.134, ATXN2L (UniProt Q8WWM7) 0.023, ATXN2 (UniProt F8WB05) 0.023, AUH (UniProt Q13825) 0.023, ATRX (UniProt P46100) -0.034, ATXN2L (UniProt H3BUF6) -0.115, AXIN1 (UniProt O15169) 0.053, ATRAID isoform 3 (UniProt Q6UW56) -0.066, B4GALNT1 (UniProt Q00973) -0.019, B3GNT5 (UniProt Q9BYG0) 0.006, AVEN (UniProt Q9NQS1) 0.016, ATF3 (UniProt P18847) 0.111

compound: COc1cc(Nc2ncc3c(n2)-c2ccc(Cl)cc2C(c2c(F)cccc2OC)=NC3)ccc1C(=O)O [alisertib]; test: as above
Procedure, shortened: as §1

log2 fold change, inactive:
ASB3 isoform 3 (UniProt Q9Y575) 0.103, ATP5F1A (UniProt P25705) 0.003, ASCC2 (UniProt Q9H1I8) -0.014, ATXN7L3B (UniProt Q96GX2) 0.006, ASL (UniProt P04424) 0.002, ATG10 (UniProt Q9H0Y0) 0.032, ATG14 (UniProt Q6ZNE5) 0.015, ATF7IP2 (UniProt Q5U623) 0.003, B3GLCT (UniProt Q6Y288) -0.007, ATL2 (UniProt Q8NHH9) 0.032, ASPM (UniProt Q8IZT6) -0.004, ATE1 isoform 2 (UniProt O95260) 0.021, ASNA1 (UniProt O43681) -0.012, ATAD1 (UniProt Q8NBU5) -0.119, AURKB isoform 5 (UniProt Q96GD4) 0.347, ATXN1L (UniProt P0C7T5) -0.044, ATP7B (UniProt P35670) 0.006, ATXN2L (UniProt Q8WWM7) -0.161, ATXN2L (UniProt H3BUF6) -0.022, AXIN1 (UniProt O15169) 0.03, ATRAID isoform 3 (UniProt Q6UW56) 0.015, B4GALNT1 (UniProt Q00973) 0.01, AVEN (UniProt Q9NQS1) 0.061, ATF3 (UniProt P18847) -0.15

compound: COc1cc2nc(-c3cc(F)ccc3O)nc(N[C@@H]3CNC[C@H]3C(C)(C)O)c2cc1OC; test: as above
Procedure, shortened: as §1

log2 fold change, inactive:
ATRN (UniProt O75882) 0.005, ATP5F1A (UniProt P25705) 0.017, ASCC2 (UniProt Q9H1I8) 0.016, ASL (UniProt P04424) 0.004, ATF7IP2 (UniProt Q5U623) 0.064, B3GLCT (UniProt Q6Y288) 0.016, ATL2 (UniProt Q8NHH9) 0.146, ASPM (UniProt Q8IZT6) 0.003, ATE1 isoform 2 (UniProt O95260) 0.004, ASNA1 (UniProt O43681) -0.002, ATAD1 (UniProt Q8NBU5) 0.039, ATP6V0C (UniProt P27449) 0.001, ATP7B (UniProt P35670) -0.083, ATXN2 (UniProt F8WB05) 0.033, AUH (UniProt Q13825) -0.052, ATXN2L (UniProt H3BUF6) -0.062, AXIN1 (UniProt O15169) -0.056, ATRAID isoform 3 (UniProt Q6UW56) 0.03, B4GALNT1 (UniProt Q00973) 0.1, B3GNT5 (UniProt Q9BYG0) 0.104, ATP1B2 (UniProt P14415) 0.006

compound: COc1cc2ncnc(Nc3ccc(F)c(Cl)c3)c2cc1OCCCN1CCOCC1 [gefitinib]; test: as above
Procedure, shortened: as §1

log2 fold change, inactive:
ASB3 isoform 3 (UniProt Q9Y575) -0.114, ATP5F1A (UniProt P25705) 0.003, ASCC2 (UniProt Q9H1I8) -0.057, ATXN7L3B (UniProt Q96GX2) 0, ASL (UniProt P04424) 0, ATG10 (UniProt Q9H0Y0) 0.04, ATG14 (UniProt Q6ZNE5) 0.207, ATF7IP2 (UniProt Q5U623) 0.044, B3GLCT (UniProt Q6Y288) 0.012, ATL2 (UniProt Q8NHH9) 0.057, ASPM (UniProt Q8IZT6) 0.011, ATE1 isoform 2 (UniProt O95260) -0.038, ASNA1 (UniProt O43681) 0.022, ATAD1 (UniProt Q8NBU5) 0.22, AURKB isoform 5 (UniProt Q96GD4) -0.044, ATXN1L (UniProt P0C7T5) 0.11, ATP7B (UniProt P35670) -0.004, ATXN2L (UniProt Q8WWM7) 0.077, ATXN2L (UniProt H3BUF6) -0.133, AXIN1 (UniProt O15169) 0, ATRAID isoform 3 (UniProt Q6UW56) 0.029, B4GALNT1 (UniProt Q00973) 0.041, AVEN (UniProt Q9NQS1) -0.09, ATF3 (UniProt P18847) 0.117
